In assay [1] the target is T1, Flag-RAB11FIP3-FL (full-length RAB11FIP3) (human) (UniProt O75154).
T1 sequence: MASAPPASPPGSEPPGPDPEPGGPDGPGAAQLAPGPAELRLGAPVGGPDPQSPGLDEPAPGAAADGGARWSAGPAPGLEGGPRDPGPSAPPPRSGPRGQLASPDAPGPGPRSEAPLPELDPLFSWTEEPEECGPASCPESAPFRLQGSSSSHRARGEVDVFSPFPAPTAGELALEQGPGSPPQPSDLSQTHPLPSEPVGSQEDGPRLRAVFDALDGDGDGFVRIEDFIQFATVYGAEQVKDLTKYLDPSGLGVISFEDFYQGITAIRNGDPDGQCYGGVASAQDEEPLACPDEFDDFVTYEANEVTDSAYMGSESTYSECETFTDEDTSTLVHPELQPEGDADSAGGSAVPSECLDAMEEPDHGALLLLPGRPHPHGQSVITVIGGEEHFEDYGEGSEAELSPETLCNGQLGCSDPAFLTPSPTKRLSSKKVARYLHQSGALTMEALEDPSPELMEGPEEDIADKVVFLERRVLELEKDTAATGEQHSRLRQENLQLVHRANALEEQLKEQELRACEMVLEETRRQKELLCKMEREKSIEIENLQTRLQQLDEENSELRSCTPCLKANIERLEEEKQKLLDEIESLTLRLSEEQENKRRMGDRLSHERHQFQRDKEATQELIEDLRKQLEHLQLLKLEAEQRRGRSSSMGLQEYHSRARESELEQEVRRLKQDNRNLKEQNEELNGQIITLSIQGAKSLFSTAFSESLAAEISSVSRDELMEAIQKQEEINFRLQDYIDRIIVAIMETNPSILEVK
The assay is described as follows: co-IP; Flag-RAB11FIP3-FL and His-HIF-1α co-transfected into HUVECs; lysate, magnetic beads and specific antibodies, Western blot.

Protein sequences, listed by entry. Tags and fused reporters are not part of them.
UniProt Q96PU5: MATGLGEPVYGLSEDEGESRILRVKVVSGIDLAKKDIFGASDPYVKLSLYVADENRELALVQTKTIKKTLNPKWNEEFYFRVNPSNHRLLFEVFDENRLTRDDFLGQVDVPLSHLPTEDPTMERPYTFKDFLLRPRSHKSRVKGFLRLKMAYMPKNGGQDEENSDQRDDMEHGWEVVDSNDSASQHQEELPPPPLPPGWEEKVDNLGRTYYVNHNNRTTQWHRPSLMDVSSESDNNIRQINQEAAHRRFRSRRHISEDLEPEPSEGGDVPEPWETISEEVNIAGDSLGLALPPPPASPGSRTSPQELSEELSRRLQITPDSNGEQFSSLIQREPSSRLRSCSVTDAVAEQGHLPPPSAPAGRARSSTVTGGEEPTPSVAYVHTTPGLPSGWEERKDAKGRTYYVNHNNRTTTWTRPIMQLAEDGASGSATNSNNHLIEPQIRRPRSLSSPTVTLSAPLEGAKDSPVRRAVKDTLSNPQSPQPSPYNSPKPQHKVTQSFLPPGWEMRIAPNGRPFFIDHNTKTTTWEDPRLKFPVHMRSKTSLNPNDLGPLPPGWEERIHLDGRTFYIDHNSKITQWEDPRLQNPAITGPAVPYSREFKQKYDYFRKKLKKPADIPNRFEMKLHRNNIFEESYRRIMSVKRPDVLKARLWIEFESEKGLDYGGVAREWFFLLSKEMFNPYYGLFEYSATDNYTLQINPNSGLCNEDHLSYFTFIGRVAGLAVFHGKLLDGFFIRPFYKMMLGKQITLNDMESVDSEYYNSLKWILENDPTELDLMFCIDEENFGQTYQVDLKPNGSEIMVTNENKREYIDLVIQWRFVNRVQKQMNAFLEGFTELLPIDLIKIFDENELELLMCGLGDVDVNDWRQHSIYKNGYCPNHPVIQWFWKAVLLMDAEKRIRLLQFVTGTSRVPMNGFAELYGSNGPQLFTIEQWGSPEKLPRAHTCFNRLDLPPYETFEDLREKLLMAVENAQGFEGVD
UniProt Q16665: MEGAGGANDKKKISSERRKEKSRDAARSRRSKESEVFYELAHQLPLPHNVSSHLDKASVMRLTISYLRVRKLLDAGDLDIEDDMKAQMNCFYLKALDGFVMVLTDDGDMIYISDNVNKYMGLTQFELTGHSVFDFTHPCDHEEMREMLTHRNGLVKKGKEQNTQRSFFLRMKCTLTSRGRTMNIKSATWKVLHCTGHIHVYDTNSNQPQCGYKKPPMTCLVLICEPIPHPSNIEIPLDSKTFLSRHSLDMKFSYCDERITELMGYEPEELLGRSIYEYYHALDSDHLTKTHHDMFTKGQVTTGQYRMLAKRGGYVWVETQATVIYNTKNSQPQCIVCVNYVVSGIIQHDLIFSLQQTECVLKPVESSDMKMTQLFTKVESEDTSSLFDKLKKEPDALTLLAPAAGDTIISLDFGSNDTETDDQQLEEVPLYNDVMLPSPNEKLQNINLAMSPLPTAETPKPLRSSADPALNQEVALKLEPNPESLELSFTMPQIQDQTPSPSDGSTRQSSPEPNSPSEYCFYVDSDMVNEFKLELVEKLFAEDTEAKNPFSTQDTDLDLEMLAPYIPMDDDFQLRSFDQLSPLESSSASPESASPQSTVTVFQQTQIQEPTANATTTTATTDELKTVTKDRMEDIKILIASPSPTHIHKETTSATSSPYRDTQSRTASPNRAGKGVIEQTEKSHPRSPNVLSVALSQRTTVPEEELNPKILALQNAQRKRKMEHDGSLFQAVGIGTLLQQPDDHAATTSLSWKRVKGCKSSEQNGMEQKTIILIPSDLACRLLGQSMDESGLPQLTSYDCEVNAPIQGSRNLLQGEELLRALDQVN

The target in another assay is HA-NEDD4L (UniProt Q96PU5). Put plainly: co-IP; HUVECs co-transfected with His-HIF-1α, HA-NEDD4L and Flag-RAB11FIP3-FL; anti-HA and anti-His antibodies.
The target of assay [2] is endogenous NEDD4L (human (endogenous in HUVECs)) (UniProt Q96PU5). The assay is described as follows: co-IP; HUVEC lysate; whether the proteins were endogenous or transfected is not stated.
Assay [3] has as its target T2, endogenous RAB11FIP3-FL (human (endogenous in HUVECs)) (UniProt O75154).
T2 sequence: T1 sequence
Put plainly: co-IP; endogenous proteins, cell lysate, magnetic beads and specific antibodies, Western blot.

Results on two substances are retold here after article PMC12320866.

No constants are given. Whether binding was seen depends on the method and setting. Binding seen in cells or lysates may run through a third protein. Some binding calls cover weakened binding; strength is not graded here. For some of these results: Where a sequence is shown, tags or fusion partners need not be part of it.

Consider His-HIF-1α (from UniProt Q16665 1-826), for which the binding result (in assay [1]; with HA-NEDD4L) was “binds” in each case.
Regarding “endogenous HIF-1α (from UniProt Q16665 1-826)”, the binding result in assay [2] and in assay [3] was “binds” in each case.
